PubChem BioAssay AID1347423 (Functional Genomics Laboratory (NCATS/FGL), 2020)
About 210 (0.4%) of roughly 52,000 sequences were called active.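 Rule for the calls: active = gene whose silencing raises cell survival under the drug, median off-target-corrected z-score across its silencing RNAs 2 or more; inactive = the rest.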 The list shows a part of the results.

Test: Resistance to Poly (ADP-Ribose) Polymerase inhibitor: Gene Identification via Genome-wide siRNA Screen
Settings: mouse BRCA2 R2336H ES cells, olaparib, CellTiter-Glo viability; hits give high values
Summary of the method: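 Genome-wide siRNA screen (3 siRNAs/gene, 20 nM) in mouse ES cells carrying hypomorphic BRCA2 R2336H; olaparib 500 nM added 48 h post-transfection, CellTiter-Glo viability 72 h later. Normalized to plate-median negative control; MAD z-scores, gene median, seed-adjusted.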

Row | Sequence | z-score
1 | CCAAAACAAGAAUCAUAUGTT against Clca4 | inactive: 0.564
2 | GGCAUUAAGAUCAUUAAGCTT against Myadm | inactive: 0.335
3 | GCGCAGAACAGCCCUAUAATT against Ndufs5 | inactive: -2.95
4 | GGAUGUCUGUACAUACAGATT against Tshb | inactive: -0.915
5 | GCGUGUUUGCCUCGGCAAATT against D030015G18Rik | inactive: -0.547
6 | GGAUCAUGAGAAUAUCAUCTT against P4hb | inactive: 0.481
7 | GGUCUCCAGACUUGUAUAATT against A530090P03Rik | inactive: -2.51
8 | GGAGAUGAAAAAAACGAGCTT against Tmem5 | inactive: 1.92
9 | GGUACUCGAAUCUGACCUCTT against Nqo1 | inactive: 0.53
10 | GGACCUAUUACCUCAAUGATT against 1700027D21Rik | inactive: -0.116
11 | GCUGUAUCAGUCUUUCUAUTT against Cyp27b1 | inactive: -1.61
12 | GGAAUGCAGAAAUGAAAAATT against Olfr1234 | inactive: -0.169
13 | GGACCAAUCUAGAGCCCAUTT against 4732456N10Rik | inactive: -2.57
14 | UGGUCGGCUAGAUGAUGGATT against Wdr34 | inactive: -1.36
15 | GGAUGUGCCAUUGAAGAUCTT against Apg4c | inactive: 0.614
16 | GAACCUUUUCCGUUUCGAGTT against Cebpb | inactive: 0.245
17 | GGACCGUCAGUGUCAUGGATT against Zfp397 | inactive: -2.5
18 | CCAAGUCUUGUAGUGGAGUTT against Vdac3 | inactive: 0.948
19 | GGAUGUUGUGGGAAAUGACTT against Hrasls | inactive: 0.145
20 | GGAGUGACAAAAGAAAUAATT against Nudt12 | inactive: 0.0657
21 | GGGAAAGACCAUGUUUGUATT against Ttbk1 | inactive: 0.564
22 | GGAUCAGACAUGCAAGAGGTT against Xlr5 | inactive: -0.0653

Row | Sequence | z-score
23 | AGUGCCUGUCUGAUUGCUCTT against Epsti1 | inactive: 0.515
24 | GGACAUCUUUUCAAACGUGTT against Centb1 | inactive: -0.258
25 | GCAGCCUUCGUGAGUCUGUTT against Asb1 | inactive: -1.24
26 | CCUGAUAACUGAUGCCGUATT against Gyltl1b | inactive: -0.648
27 | GGACAUGGAUGACACUGAUTT against 0610007P22Rik | inactive: 1.15
28 | GGAACUCUAUGCCAAUACCTT against Fhl2 | inactive: 0.99
29 | ACUCAGUCAUUAAAGAGUGTT against G430095P16Rik | inactive: -0.551
30 | GCCCUGCUGUUGUCAGUCUTT against Krtap5-1 | inactive: -0.789
31 | GGGCAACAUUGCGCAAAUGTT against Pwp2h | inactive: -1.89
32 | GGGAUAAGCAUGCUCAGUGTT against Mrgpra2 | inactive: -2.71
33 | GCGAGAGAUGAAAUGGGUGTT against 1810062O14Rik | inactive: -0.666
34 | GGGUUUCUGUGAGAGACAATT against 2510010F15Rik | inactive: -0.0737
35 | GGGACAGCAGUUCAUUCUATT against Cryba2 | inactive: 0.129
36 | GGCUCCAAGUCUACACAACTT against Dnajc6 | inactive: -0.25
37 | CGGCAAAGUCCUCACAGCUTT against 1110020M19Rik | inactive: -1.12
38 | GCCUGACAAUAGUCAUUUCTT against Olfr985 | inactive: 0.857
39 | GGACAACAAGAUCAGGACCTT against Akap4 | inactive: -0.832
40 | GGAAAAAGCCAAGCUCAUCTT against Syt3 | inactive: -0.0737
41 | GCAAGUCAAGCUAGAAAAATT against Slc16a1 | inactive: 1.21
42 | GCGGUAGGGAUGAAAUAGUTT against Ccnd1 | inactive: -0.424
43 | CCAUGGUUCUCAUUAGUAATT against Adk | inactive: -0.138
44 | CCCUCCACUAUGAUCAAUCTT against Gpr56 | inactive: 3.01

Row | Sequence | z-score
45 | GCUAAUUGAGACCUAUUUCTT against Plp1 | inactive: 0.272
46 | CCUGGUUAGAGAAUGGAAATT against SIRP-beta | inactive: 1.15
47 | GGAAAGAUAGAAGACAAACTT against Spry4 | inactive: 1.06
48 | GGUAGUAUCUGGCAUAAAATT against Fhl4 | inactive: 0.419
49 | GCCUGGUAUGAGGAUCUGCTT against Ddit3 | inactive: 0.527
50 | CCAGUUUUCGACACAAUUCTT against Mcpt5 | inactive: -2.35
51 | CGGACCCGAGUUCGAGAAATT against Cherp | inactive: -0.219
52 | GCAGCAUCCAAUAAAGGGATT against Car1 | inactive: 0.694
53 | GUGCAUCUACAACAUCGGCTT against Plp2 | inactive: -0.493
54 | GCAGCAGUGCUUACUUAACTT against 2610528H13Rik | inactive: 0.787
55 | GCCAAUGCUUCCAUUACCATT against Abca17 | inactive: -0.31
56 | GGACUUGUUAGCGCAUCUCTT against Psmb9 | inactive: 1.25
57 | GCUGAAGAUGGAGCCUUGUTT against 1700011A15Rik | inactive: -1.49
58 | GGUCUACAGGCAUCAAUGATT against Nr5a1 | inactive: 0.16
59 | GGAGUUUUUGUGAGACAAATT against 2010011I20Rik | inactive: -0.286
60 | GCAUCAUUUCUGGGAUGGGTT against Scrg1 | inactive: -1.42
61 | CCAUUGAUGUUUGAUCGGATT against Fndc4 | inactive: 3.01
62 | GGGUCAGAAUGUUUCCUUCTT against Olfr331 | inactive: -1.13
63 | GGGCUUUGACUUCAAGACUTT against Mat1a | inactive: -0.659
64 | GGACAGGAUGAGUUUGACATT against Rhou | inactive: -1.47
65 | GGUCAUACACUUCUGCACATT against C330006K01Rik | inactive: 1.27
66 | CCACCCUGCACAGAAUCUATT against Ppp2r5c | inactive: -0.415
